From publication PMC10068152
No constants are given. Whether binding was seen depends on the method and setting. In cells and extracts the contact can be indirect. Some binding calls cover weakened binding; strength is not graded here.

Sequences of proteins named here, by UniProt entry; tags and fusion partners are left off.
UniProt P10415: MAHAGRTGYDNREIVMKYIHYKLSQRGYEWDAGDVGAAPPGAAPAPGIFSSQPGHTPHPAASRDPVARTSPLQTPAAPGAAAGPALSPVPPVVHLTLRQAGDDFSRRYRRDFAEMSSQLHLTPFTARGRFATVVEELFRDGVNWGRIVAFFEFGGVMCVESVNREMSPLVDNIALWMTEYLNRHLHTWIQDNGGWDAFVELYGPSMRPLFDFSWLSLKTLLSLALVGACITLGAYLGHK

Biological target: BCL2 (human (endogenous in Huh7-SR)) (UniProt P10415)
Test: co-IP; Huh7-SR cells, 48 h after the indicated treatments (among them coculture with MenSCs); co-IP followed by immunoblotting; which protein was precipitated is not told

binding: binds
Substance: Beclin1 (from UniProt Q14457 1-450)
